Data as given in PubChem BioAssay AID1259275 (Sanger Institute, 2017)

Aim: 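Kinase and colorectal cancer genes needed for cancer cell survival, with or without drugs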 (primary screen)
System: COLO320HSR human colorectal cancer cells
Reagent: siRNA pool against human genes
Challenge: anchor drug added one day after transfection: BYL719 at 1 µM, cetuximab at 5 µg/ml or trametinib at 10 nM; DMSO as vehicle arm
Read-out: 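Replicate-mean viability versus non-targeting pool control, robust z-score without drug, and per-drug synergy scores for BYL719 at 1 µM, cetuximab at 5 µg/ml and trametinib at 10 nM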
Scale: robust z-score, siRNA alone: higher = more viable cells; strongly negative means essential
Active means: 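Essential means the knock-down by itself gives a robust z-score lower than -3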
Calls: active = essential (siRNA alone); inactive = no change (siRNA alone)
This is one part, drawn at random, of 794 reagents tested. 13 of them (1.6%) count as active. 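Calls mark knock-downs lethal by themselves, not drug synergy; drugs went in a day after transfection, with DMSO as vehicle.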 Not all columns of the deposit are shown. The record does not give: the amount of reagent, the time to read-out.

With EPHA2, what was measured?
robust z-score, siRNA alone: 0.726; call: inactive

What is on record for SMG1?
robust z-score, siRNA alone: 0.206; call: inactive

For PTEN, what does the deposit list?
robust z-score, siRNA alone: 0.0145; call: inactive

With AK5, how do the results read?
robust z-score, siRNA alone: 0.158; call: inactive

Which result is listed for ERN2?
robust z-score, siRNA alone: 0.199; call: inactive

What is on record for SLK?
robust z-score, siRNA alone: 0.229; call: inactive

Which result is listed for MYLK?
robust z-score, siRNA alone: -0.185; call: inactive

Which result is listed for ANKK1?
robust z-score, siRNA alone: 0.159; call: inactive

With DSTYK, how do the results read?
robust z-score, siRNA alone: 0.726; call: inactive

Which result is listed for PGK1?
robust z-score, siRNA alone: -0.477; call: inactive

What did the screen give for LIMK2?
robust z-score, siRNA alone: 0.726; call: inactive

For GUCY2EP, what was measured?
robust z-score, siRNA alone: -0.839; call: inactive

What is on record for DLG1?
robust z-score, siRNA alone: 0.563; call: inactive

What did the screen give for BRWD1?
robust z-score, siRNA alone: -1.43; call: inactive

With RIPK1, what was measured?
robust z-score, siRNA alone: -1.37; call: inactive

What is on record for MAPK7?
robust z-score, siRNA alone: 0.726; call: inactive

With CLSPN, what was measured?
robust z-score, siRNA alone: -0.236; call: inactive

With CRIM1, what was measured?
robust z-score, siRNA alone: -0.227; call: inactive

For NME2, what was measured?
robust z-score, siRNA alone: 0.726; call: inactive

Part of the list above, reformatted.
target gene	robust z-score, siRNA alone	call
MYLK	-0.185	inactive
ANKK1	0.159	inactive
